These results are taken from article PMC9038752, “Molecular mechanisms of bifunctional vitamin D receptor agonist-histone deacetylase inhibitor hybrid molecules in triple-negative breast cancer” (Scientific Reports, 2022).

In one assay the test system is class I HDAC. Also on record: method as in PMID 9501205. The settings on record: 100 nM; cited from earlier work.
In the next assay the test system is 4TO7 cells. The experiment in a line: RNAseq gene expression profiling in 4TO7 cells. The assay is classed as cell-based, mouse. The settings on record: relative to control. As for the experimental part:
Cells were treated for 6 h to focus more on genes directly regulated by the VDR, or for 24 or 48 h to gain insight into longer-term effects on gene expression.
McGill Genome Centre performed a quality control before sequencing in paired-end at 50 M reads by Illumina NovaSeq 6000 S4 PE100. Sets of genes regulated in the different conditions were sent to us and downstream analysis were performed.
Table S1 and Table S2 : See Excel files with RNAseq results and analysis
48 hours prior to RNA extraction. Samples were prepared in triplicate and run on Illumina NovaSeq 6000 S4
PE100. For assessing differential gene expression for RNAseq data, the LIMMA package inR was used.
RNAseq results and statistical analyses from D, S, S+D, DK-406, and AM-193 conditions measured relative to
AM-193 for 6 or 24 hours prior to RNA extraction . Samples were prepared in triplicate and run on Illumina
NovaSeq 6000 S4 PE100. For assessing differential gene expression for RNAseq data, the LIMMA package in R was […]

Where [1] appears, read: 6 h, RNAseq Supplemental table 1.
Setting [2] is: 6 h, RNAseq Supplemental table 2, 1 µM AM-193, 10 µM DK-406, 100 nM 1,25D and SAHA.
The mark [3] stands for this setting: 24 h, RNAseq Supplemental table 2, 1 µM AM-193, 10 µM DK-406, 100 nM 1,25D and SAHA.
Where [4] appears, read: 48 h, RNAseq Supplemental table 1.

As to `O=C(CCCCCCC(=O)Nc1ccccc1)NO` [SAHA, Suberoylanilide hydroxamic acid], the “inhibition of class I HDAC activity in vitro” value in the assay with class I HDAC is on record as “almost complete inhibition”. In the assay on 4TO7 cells (setting [1]), the “Aaas 6h Log Fold” value worked out at 1.057, the “Aacs 6h Log Fold” value was -1.025, the “Aaed1 6h Log Fold” value was found to be 1.001 and the “Aagab 6h Log Fold” value amounted to 1.064. The “Aak1 6h Log Fold” value in the assay with 4TO7 cells (setting [1]) is reported as 1.124. In addition, in the assay on 4TO7 cells (setting [2]), the “Aaas 6h Log Fold” value is listed as 0.032, the “Aacs 6h Log Fold” value is reported as -0.077, the “Aagab 6h Log Fold” value is 0.054 and the “Aak1 6h Log Fold” value was determined as 0.064. Also, the “Aamdc 6h Log Fold” value in the assay with 4TO7 cells (setting [2]) is -0.024. Besides, in the assay with 4TO7 cells (setting [3]), the “Aaas 24h Log Fold” value is 0.096, the “Aacs 24h Log Fold” value worked out at 9.68e-5, the “Aagab 24h Log Fold” value was found to be 0.109 and the “Aak1 24h Log Fold” value is given as -0.325. The “Aamdc 24h Log Fold” value with 4TO7 cells (setting [3]) came to 0.520. For the same molecule, in the assay with 4TO7 cells (setting [4]), the “Aaas 48h Log Fold” value is -1.020, the “Aacs 48h Log Fold” value amounted to 1.032, the “Aaed1 48h Log Fold” value was -1.034 and the “Aagab 48h Log Fold” value was 1.022. In addition, the “Aak1 48h Log Fold” value in the assay on 4TO7 cells (setting [4]) is -1.015.
